# Laboratory results: patent US6150325A (A. Menarini Industrie Farmaceutiche Riunite S.r.l., priority 1995, dated 2000)
# Assays:
# [1] = general procedure: Fmoc solid-phase peptide synthesis; 2-chlorotrityl resin; HOBt/DCC; OPfp ester with HOBt for the glycosylated residue; PyBOP/DIEA for cycl; conditions: whole synthesis
# [2] = general procedure: Fmoc solid-phase peptide synthesis; 2-chlor trityl resin (1.6 mmol/g, Novabiochem), Fmoc-Leu substitution 0.364 meq/g; HOBt/DCC; OPfp ester with HOBt for the glycosylated residue; PyBOP/DIEA for cycl
substance,measurement,setting,value
cyclo([Asn(β-D-Glc)-Asp-Trp-Phe-Dap-Leu]cyclo(2β-5β)),crude mass,[1],405 mg
same,step yield,[2]; late stage modification step,60%
same,purity (crude or final not stated),"[2]; late stage modification step, HPLC",98%
same,crude HPLC purity,"[2]; whole synthesis, HPLC, scale of the general procedure 1 g of resin",70%
same,crude yield,"[2]; whole synthesis, scale of the general procedure 1 g of resin",90%
